No constants are given. Whether binding was seen depends on the method and setting. In cells and extracts the contact can be indirect. Some results given as binding are weak or reduced against the parent protein; the word gives no strength.
Target: T1, Interferon-induced protein with tetratricopeptide repeats 3 (human (endogenous in FaDu and Cal27)) (UniProt O14879)
T1 sequence: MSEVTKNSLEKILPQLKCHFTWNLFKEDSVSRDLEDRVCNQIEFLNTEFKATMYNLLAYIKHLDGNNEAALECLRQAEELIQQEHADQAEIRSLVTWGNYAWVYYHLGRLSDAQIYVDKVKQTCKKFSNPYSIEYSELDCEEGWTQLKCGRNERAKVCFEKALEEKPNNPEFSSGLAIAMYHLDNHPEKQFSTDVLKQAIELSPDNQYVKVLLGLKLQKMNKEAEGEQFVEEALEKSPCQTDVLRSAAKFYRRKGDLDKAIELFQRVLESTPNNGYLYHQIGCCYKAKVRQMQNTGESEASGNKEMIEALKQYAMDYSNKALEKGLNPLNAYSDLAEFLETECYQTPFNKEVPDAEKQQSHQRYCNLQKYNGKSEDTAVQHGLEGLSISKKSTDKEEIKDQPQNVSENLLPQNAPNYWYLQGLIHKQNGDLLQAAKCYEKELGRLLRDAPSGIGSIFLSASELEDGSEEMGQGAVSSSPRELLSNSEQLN
Assay: co-IP; FaDu and Cal27 cell lysates; 2 ug antibody or control IgG overnight at 4 °C, protein A+G agarose 3 h at 4 °C, washed with PBS, Western blotting

The chains behind the UniProt entries cited, without tags or fusion partners. Residues count along the entry.
UniProt Q9NZQ7, residues 19-290: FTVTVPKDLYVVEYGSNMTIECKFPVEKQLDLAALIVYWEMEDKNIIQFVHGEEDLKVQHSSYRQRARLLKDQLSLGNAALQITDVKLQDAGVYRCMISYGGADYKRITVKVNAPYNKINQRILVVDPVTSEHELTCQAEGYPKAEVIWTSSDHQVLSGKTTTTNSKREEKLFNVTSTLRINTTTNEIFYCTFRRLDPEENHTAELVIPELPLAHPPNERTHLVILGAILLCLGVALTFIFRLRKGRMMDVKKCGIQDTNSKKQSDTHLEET

Substance: Programmed death-ligand 1 (from UniProt Q9NZQ7 19-290)
- binding: binds
